Positions count from the first letter of the chain named. In names and notes the source's numbering stands. These are yes or no findings as the source states them, for the method shown. Some entries that bind do so weakly or less than the wild type. For part of these data: Where a sequence is shown, tags or fusion partners need not be part of it.

Among the data in paper PMC3823977 are binding values, retold here.

The target of test [1] is T1, SETX (1–650 wt) in the CheckMate mammalian two-hybrid system (pBIND-SETX and pACT-SETX) (human) (UniProt Q7Z333).
T1 sequence: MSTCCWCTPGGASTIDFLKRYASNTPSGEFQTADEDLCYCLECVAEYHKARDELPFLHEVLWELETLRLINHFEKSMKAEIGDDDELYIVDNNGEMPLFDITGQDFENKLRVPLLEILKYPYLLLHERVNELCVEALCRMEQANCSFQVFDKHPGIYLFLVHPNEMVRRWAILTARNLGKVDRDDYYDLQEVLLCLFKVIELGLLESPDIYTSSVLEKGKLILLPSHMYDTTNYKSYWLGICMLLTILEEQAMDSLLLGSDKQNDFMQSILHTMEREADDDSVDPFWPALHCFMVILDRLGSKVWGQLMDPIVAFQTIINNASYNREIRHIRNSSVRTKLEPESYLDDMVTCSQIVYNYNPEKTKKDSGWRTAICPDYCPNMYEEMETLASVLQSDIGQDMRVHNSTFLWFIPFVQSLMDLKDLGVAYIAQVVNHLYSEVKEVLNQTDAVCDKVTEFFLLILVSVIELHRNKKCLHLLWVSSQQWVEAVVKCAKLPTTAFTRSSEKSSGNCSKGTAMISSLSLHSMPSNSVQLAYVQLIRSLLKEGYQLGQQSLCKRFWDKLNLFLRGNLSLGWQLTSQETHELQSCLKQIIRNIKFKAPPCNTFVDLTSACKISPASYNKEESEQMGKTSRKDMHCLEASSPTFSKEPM
Put plainly: two-hybrid; CheckMate mammalian two-hybrid (Promega), pBIND and pACT fusions, luciferase activity, three transfection experiments.

The target in test [2] is SETX (1–650 L389S) in the CheckMate mammalian two-hybrid system (pBIND-SETX and pACT-SETX) (human) (UniProt Q7Z333). The test is described as above.
Test [3] has as its target T2, BD-SETX-L389S, senataxin residues 1–650 with the ALS4 L389S mutation as yeast two-hybrid bait (human) (UniProt Q7Z333).
T2 sequence: T1 sequence with L389S
Description: two-hybrid; yeast, Matchmaker GAL4 system; senataxin 1–650 baits in pGBKT7-BD, human brain library preys in pGADT7-Rec; library screens by mating, retest by mating and by co-transformation with patching of serial dilutions on Leu-/Trp-/His- medium with 3 mM 3-AT.

For test [4], the target named is T3, BD-SETX-W305C, senataxin amino-terminal bait with the AOA2 mutation W305C (human) (UniProt Q7Z333).
T3 sequence: T1 sequence with W305C
The description is as above.

In test [5] the target is T4, BD-SETX-wt, wild type senataxin residues 1–650 as yeast two-hybrid bait (human) (UniProt Q7Z333).
T4 sequence: T1 sequence
Described as above.

B1: SETX (1–650 wt) in the CheckMate mammalian two-hybrid system (pBIND-SETX and pACT-SETX) (domain or fragment, UniProt Q7Z333-1 1-650)
chain: T1 sequence
With B1, in test [1], the binding result is recorded as “binds”.

B2: SETX (1–650 L389S) in the CheckMate mammalian two-hybrid system (pBIND-SETX and pACT-SETX) (domain or fragment, UniProt Q7Z333-1 1-650)
chain: T1 sequence with L389S
On to B2, for which the binding result in test [2] and in test [1] was “binds” each time.

B3: SETX library prey clone (amino acids 1–668, N-term) (domain or fragment, UniProt Q7Z333-1 1-668)
chain: MSTCCWCTPGGASTIDFLKRYASNTPSGEFQTADEDLCYCLECVAEYHKARDELPFLHEVLWELETLRLINHFEKSMKAEIGDDDELYIVDNNGEMPLFDITGQDFENKLRVPLLEILKYPYLLLHERVNELCVEALCRMEQANCSFQVFDKHPGIYLFLVHPNEMVRRWAILTARNLGKVDRDDYYDLQEVLLCLFKVIELGLLESPDIYTSSVLEKGKLILLPSHMYDTTNYKSYWLGICMLLTILEEQAMDSLLLGSDKQNDFMQSILHTMEREADDDSVDPFWPALHCFMVILDRLGSKVWGQLMDPIVAFQTIINNASYNREIRHIRNSSVRTKLEPESYLDDMVTCSQIVYNYNPEKTKKDSGWRTAICPDYCPNMYEEMETLASVLQSDIGQDMRVHNSTFLWFIPFVQSLMDLKDLGVAYIAQVVNHLYSEVKEVLNQTDAVCDKVTEFFLLILVSVIELHRNKKCLHLLWVSSQQWVEAVVKCAKLPTTAFTRSSEKSSGNCSKGTAMISSLSLHSMPSNSVQLAYVQLIRSLLKEGYQLGQQSLCKRFWDKLNLFLRGNLSLGWQLTSQETHELQSCLKQIIRNIKFKAPPCNTFVDLTSACKISPASYNKEESEQMGKTSRKDMHCLEASSPTFSKEPMKVQDSVLIKADNTIEGDN
With B3, the binding entry in test [3], in test [4] and in test [5] was “binds” in each case.

B4: PIAS, E3 SUMO-protein ligase, library prey clone (318–652 ter) (domain or fragment, UniProt O75925-1 318-651)
chain: ADPDSEIATTSLRVSLLCPLGKMRLTIPCRALTCSHLQCFDATLYIQMNEKKPTWVCPVCDKKAPYEHLIIDGLFMEILKYCTDCDEIQFKEDGTWAPMRSKKEVQEVSASYNGVDGCLSSTLEHQVASHHQSSNKNKKVEVIDLTIDSSSDEEEEEPSAKRTCPSLSPTSPLNNKGILSLPHQASPVSRTPSLPAVDTSYINTSLIQDYRHPFHMTPMPYDLQGLDFFPFLSGDNQHYNTSLLAAAAAAVSDDQDLLHSSRFFPYTSSQMFLDQLSAGGSTSLPTTNGSSSGSNSSLVSSNSLRESHSHTVTNRSSTDTASIFGIIPDIISLD
B4: the binding result in test [3], in test [4] and in test [5] was “binds” in each case.

B5: SAE2, SUMO-1 activating enzyme subunit 2, library prey clone (451–641 ter) (domain or fragment, UniProt Q9UBT2-1 451-640)
chain: TVRLNVHKVTVLTLQDKIVKEKFAMVAPDVQIEDGKGTILISSEEGETEANNHKKLSEFGIRNGSRLQADDFLQDYTLLINILHSEDLGKDVEFEVVGDAPEKVGPKQAEDAAKSITNGSDDGAQPSTSTAQEQDDVLIVDSDEEDSSNNADVSEEERSRKRKLDEKENLSAKRSRIEQKEELDDVIALD
Turning to B5, the binding result in test [3], in test [4] and in test [5] was “binds” throughout.

B6: HIPK2, homeodomain interacting protein-kinase 2, library prey clone (216–527) (domain or fragment, UniProt Q9H2X6-1 216-527)
chain: CWKRGTNEIVAIKILKNHPSYARQGQIEVSILARLSTESADDYNFVRAYECFQHKNHTCLVFEMLEQNLYDFLKQNKFSPLPLKYIRPVLQQVATALMKLKSLGLIHADLKPENIMLVDPSRQPYRVKVIDFGSASHVSKAVCSTYLQSRYYRAPEIILGLPFCEAIDMWSLGCVIAELFLGWPLYPGASEYDQIRYISQTQGLPAEYLLSAGTKTTRFFNRDTDSPYPLWRLKTPDDHEAETGIKSKEARKYIFNCLDDMAQVNMTTDLEGSDMLVEKADRREFIDLLKKMLTIDADKRITPIETLNHPFV
B6: the binding entry in test [3], in test [4] and in test [5] was “binds” throughout.

B7: TOPORS, topoisomerase I-binding arginine/serine-rich protein, library prey clone (468–1046 ter) (domain or fragment, UniProt Q9NS56-1 468-1045)
chain: NNDSDDSSDNCVIVGFVKPLAERTPELVELSSDSEDLGSYEKMETVKTQEQEQSYSSGDSDVSRCSSPHSVLGKDEQINKGHCDSSTRIKSKKEEKRSTSLSSPRNLNSSVRGDRVYSPYNHRHRKRGRSRSSDSRSQSRSGHDQKNHRKHHGKKRMKSKRSRSRESSRPRGRRDKKRSRTRDSSWSRRSQTLSLSSESTSRSRSRSSDHGKRRSRSRNRDRYYLRNNYGSRYKWEYTYYSRNKDRDGYESSYRRRTLSRAHYSRQSSSPEFRVQSFSERTNARKKNNHSERKYYYYERHRSRSLSSNRSRTASTGTDRVRNEKPGGKRKYKTRHLEGTNEVAQPSREFASKAKDSHYQKSSSKLDGNYKNESDTFSDSRSSDRETKHKRRKRKTRSLSVEIVYEGKATDTTKHHKKKKKKHKKKHKKHHGDNASRSPVVITIDSDSDKDSEVKEDTECDNSGPQDPLQNEFLAPSLEPFETKDVVTIEAEFGVLDKECDIATLSNNLNNANKTVDNIPPLAASVEQTLDVREESTFVSDLENQPSNIVSLQTEPSRQLPSPRTSLMSVCLGRDCDMS
As for B7, the binding result in test [3], in test [4] and in test [5] was “binds” throughout.
